# Assay results as given in PubChem BioAssay AID1347075 (National Center for Advancing Translational Sciences (NCATS), 2019).
# Out of some 400,000 compounds screened, about 5,500 (1.4%) were called active. This list was built around the results that the source calls inconclusive (neither active nor inactive); the mix of calls is not that of the screen. Calls follow the shape of the dose curve; as a rule, active = well fitted cell-killing curve with a large enough effect; inconclusive = small, poorly fitted or top-dose-only effect, or effect the other way; inactive = flat fitted curve, though single readings scatter. A potency beside an inconclusive call is a rough fit, not a confirmed value.
# Test: qHTS assay for MDR1-selective chemotherapeutics: Primary screen using the parental adenocarcinoma cell KB-3-1; also: nearly all actives have a fitted effect of over 60% in size
# Conditions: KB-3-1 viability, CellTiter-Glo ATP luminescence, 72 h; activity change, negative = cytotoxic: at 46.1 µM (top of the series)
# How it was run: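 Using CellTiter-Glo luminescence, growth of non-resistant KB-3-1 adenocarcinoma cells is assessed 72 h after pin-tool compound addition at 37 °C. Normalized responses across the concentration series yield fitted curves.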
# % is scaled to controls: 0 for no effect and ±100 for the full control effect; potency is read from the fitted curve at half-maximal effect.
SMILES,"activity change, negative = cytotoxic",Potency
Cc1ccc(SCC(=O)Nc2ccc(N3CCOCC3)cc2)cc1C,inactive: 1.52%,–
Cc1ccc(C(=O)NC(=S)Nc2cccc3c(C)cc(C)nc23)cc1,–,"inconclusive: 32.6 µM [cytotoxic, single point]"
CCOC(=O)c1cc2cc(OC)ccc2n1C1CCN(CCc2ccccc2)CC1,–,"inconclusive: 29.1 µM [cytotoxic, single point]"
CCN(CC)C(=O)c1[nH]cnc1C(=O)N[C@@H](Cc1ccccc1)C(=O)OCc1ccccc1,inactive: 0%,–
COc1ccc(N2CCN(C(=O)c3cnn(-c4ccc(F)cc4)c3-n3cccc3)CC2)cc1,–,"inconclusive: 18.4 µM [cytotoxic, single point]"
Clc1ccc2c(c1)-c1c(cnc3cc(-c4ccccc4)nn13)CO2,inactive: 0.0747%,–
COc1ccc(C2/C=C\CN(C(=O)c3ccc(C)cc3)[C@H](Cc3ccccc3)C(=O)N2Cc2ccc(F)cc2)cc1 (stereo partly specified),–,active: 11.6 µM
O=C(Nc1ccccc1)Nc1ccc2snnc2c1,–,"inconclusive: 32.6 µM [cytotoxic, single point]"
CSc1cccc(Nc2cc(C(=O)NCCc3ccc(Cl)cc3)c3ccccc3n2)c1,–,"inconclusive: 32.6 µM [cytotoxic, single point]"
CCS(=O)(=O)c1ncc(Cl)c(C(=O)Nc2ccc(S(=O)(=O)N3CCC(C)CC3)cc2)n1,–,"inconclusive: 3.26 µM [cytotoxic, full curve, poor fit]"
O=C1CCCc2cc(S(=O)(=O)N3CCCC(C(=O)Nc4ccc(F)c(Cl)c4)C3)ccc2N1 (stereo unspecified),–,"inconclusive: 16.4 µM [cytotoxic, single point]"
O=S(=O)(O)c1ccc2c(N=Nc3ccc(S(=O)(=O)O)c4ccccc34)c(O)c(S(=O)(=O)O)cc2c1,–,"inconclusive: 2.91 µM [cytotoxic, full curve, poor fit]"
CCCN(CC(=O)Nc1ccccc1C)C(=O)CCCNC(=O)c1ccc(Cl)cc1,inactive: 16.8%,–
CCN(CC)S(=O)(=O)c1cc([N+](=O)[O-])ccc1NNC(=O)Nc1ccccc1OC,–,"inconclusive: 16.4 µM [cytotoxic, single point]"
Cc1ccc2[nH]c(C)cc(=S)c2c1,–,"inconclusive: 29.1 µM [cytotoxic, single point]"
Cc1cccc(NS(=O)(=O)c2cccc(C(=O)NNC(=O)c3ccccc3O)c2)c1,–,"inconclusive: 29.1 µM [cytotoxic, single point]"
COCCCN(C(=O)Cc1ccc(S(=O)(=O)N2CCOCC2)s1)c1c(N)n(Cc2ccccc2)c(=O)[nH]c1=O,inactive: 10.2%,–
N#Cc1ccc(C(=O)NCc2ccc3c(c2)CCN3C(=O)c2ccc(F)cc2)cc1,inactive: -25.7%,–
CCc1ccc(OCC(=O)NC(NC(=S)Nc2ccccc2)C(Cl)(Cl)Cl)cc1 (stereo unspecified),–,"inconclusive: 20.6 µM [cytotoxic, single point]"
CC(C)c1ccc(NC(=O)c2ccc3c(c2)CCN3S(C)(=O)=O)cc1,–,"inconclusive: 18.4 µM [cytotoxic, single point]"
CCOC(=O)N1CCN(c2ccc(C(=O)c3ccccc3)cc2F)CC1,–,"inconclusive: 32.6 µM [cytotoxic, single point]"

SMILES,"activity change, negative = cytotoxic",Potency
CC(NCC(O)COc1ccc2ccccc2c1)c1ccccc1 (stereo unspecified),–,"inconclusive: 23.1 µM [cytotoxic, single point]"
Cc1cccc2sc(NNC(=O)c3cc(=O)c4ccccc4o3)nc12,–,"inconclusive: 29.1 µM [cytotoxic, single point]"
COc1cc(C(C)=O)ccc1Oc1ncnc2c1cnn2-c1ccc(C)c(C)c1,inactive: -11.3%,–
COc1ccc2c(c1[N+](=O)[O-])CCC/C2=N/OC(=O)c1ccccc1SC,inactive: 2.2%,–
C=CCNC(=O)COC(=O)c1cccnc1Nc1ccccc1F,–,"inconclusive: 14.6 µM [rising, partial curve, poor fit]"
C[C@H](CO)N1C[C@H](C)[C@@H](CN(C)S(=O)(=O)c2ccc(-n3cccn3)cc2)OCc2cnnn2CCCC1=O,–,"inconclusive: 29.1 µM [rising, partial curve, poor fit]"
Cn1c(=O)[nH]c(=O)c2c1nc(Sc1ncccn1)n2CCCc1ccccc1,–,"inconclusive: 23.1 µM [cytotoxic, single point]"
Cc1ccc2c(c1)c(=O)c1ccccc1n2CCCC(=O)Nc1cc(Cl)ccc1C,–,"inconclusive: 11.6 µM [cytotoxic, partial curve]"
C#CCOCCOCCOCCNc1nc(N2CCN(C(=O)C([C@@H](C)CC)n3cc(C(N)COC(=O)C(F)(F)F)nn3)CC2)nc(N2CCN(C(=O)C([C@@H](C)CC)n3cc(C(N)CC(C)C)nn3)CC2)n1 (stereo partly specified),–,"inconclusive: 20.6 µM [rising, partial curve, poor fit]"
COc1ccccc1NS(=O)(=O)c1ccc(N/N=C(\C)C(C)C)c([N+](=O)[O-])c1,–,"inconclusive: 29.1 µM [cytotoxic, single point]"
O=S1(=O)N=C(N/N=C/c2ccccn2)c2ccccc21,inactive: 0.725%,–
O=[N+]([O-])c1ccc(O)c(C2CCCCC2)c1,–,"inconclusive: 14.6 µM [cytotoxic, single point]"
COc1cc2c(C#N)c(N3CCc4ccccc4C3)nc(N)c2c(N)n1,–,"inconclusive: 20.6 µM [cytotoxic, single point]"
COc1ccccc1NC(=O)c1cc(S(=O)(=O)N2CCN(c3ccccc3Cl)CC2)ccc1F,inactive: 7.36%,–
CCOc1ccccc1NC(=O)CCN(c1ccc(C)cc1)S(=O)(=O)c1ccccc1,–,"inconclusive: 18.4 µM [cytotoxic, partial curve, poor fit]"
COc1ccc(CC(=O)NNS(=O)(=O)c2ccccc2)cc1OC,inactive: -1.43%,–
Cc1nn(C)cc1-c1n[nH]c(=S)n1-c1ccc(F)cc1,inactive: 19%,–
CCCCCCCCCCCC(=O)c1c(O)cccc1O,–,"inconclusive: 0.0366 µM [rising, full curve]"
COC(=O)c1cccc(NC(N)=S)c1,–,"inconclusive: 29.1 µM [cytotoxic, single point]"
Cn1c(=O)c(C(=O)CCl)c(N)n(Cc2ccccc2)c1=O,–,"inconclusive: 29.1 µM [cytotoxic, single point]"

# Fetched by structure from the entries so far, two records:
SMILES,"activity change, negative = cytotoxic",Potency
Cc1nn(C)cc1-c1n[nH]c(=S)n1-c1ccc(F)cc1,inactive: 19%,–
C=CCNC(=O)COC(=O)c1cccnc1Nc1ccccc1F,–,"inconclusive: 14.6 µM [rising, partial curve, poor fit]"
